From publication PMC5123050 come the findings set out here.

The exact form of at least one protein or probe is not confirmed. For some of these results: A negative result means that nothing was seen under these conditions. For some of these results: At least one verdict rests on a figure or table, not on a statement of the authors. For some of these results: Weaker means in comparison with the reference protein, sequence or condition of that experiment.

Holding throughout (assay): EMSA
For orientation: A gel shift assay detects complexes by their altered migration in electrophoresis.

Data set [1] has as its system RNA polymerase (RNAP), 13 subunits (Sulfolobus solfataricus (Sso), strain M16:pSVA158). As to conditions: PIC EMSA: 10 mM MOPS pH 6.5, 10 mM MgCl2, 260 mM NaCl, 5 mM DTT, 10% glycerol, 0.067 mg/ml BSA, 20 ug/ml heparin, 65 C 5 min, 4-12% native PAGE, native protein.
Data set [2] concerns RNA polymerase (RNAP), 13 subunits + TBP (TATA-binding protein) + TFB (transcription factor B) + TFEalpha/beta. As to conditions: PIC EMSA: 10 mM MOPS pH 6.5, 10 mM MgCl2, 260 mM NaCl, 5 mM DTT, 10% glycerol, 0.067 mg/ml BSA, 20 ug/ml heparin, 65 C 5 min, 4-12% native PAGE, label: 32P.
Data set [3] deals with RNA polymerase (RNAP), 13 subunits + TBP (TATA-binding protein) + TFB (transcription factor B). As to conditions: PIC EMSA: 10 mM MOPS pH 6.5, 10 mM MgCl2, 260 mM NaCl, 5 mM DTT, 10% glycerol, 0.067 mg/ml BSA, 20 ug/ml heparin, 65 C 5 min, 4-12% native PAGE, label: 32P.

With “CCGGCAGTACTAGTAATGACCAGGCGTAACTACTTCATCTTAACTACTCTAATGGATCTCCCATATGGTGGAGGTAAGGGTGG / CCACCCTTACCTCCACCATATGGGAGATCCATTAGAGTAGTTAAGATGAAGTAGTTACGCCTGCTCATTACTAGTACTGCCGG [elongation scaffold without RNA]”, in data set [1] (no RNA, TEC strictly dependent on the RNA component), the binding result is recorded as “no binding”.
Take “GATTGATAGAGTAAAGTTTAAATACTTATATAGATAGAGTATAGATAGAGGGTTCAAAAAATGGTT / AACCATTTTTTGAACCCTCTGCTCATACTCTATCTATATAAGTATTTAAACTTTACTCTATCAATC [SSV1 T6 promoter, pre-melted -4/-1]”: the binding result is reported as “binds” in data set [2] (0.5 uM TFE, supershift of minimal PIC); “binds more weakly” in data set [2] (with RIP (100-800 nM), lower RIP:RNAP ratio needed than without TFE); “binds” in data set [3] (50 nM RNAP, 1 uM TBP, 0.125 uM TFB, 7.8 nM DNA, heparin); “binds more weakly” in data set [3] (RIP added after PIC formation, significant PIC fraction left at 16-fold excess RIP); “binds more weakly” in data set [3] (RIP pre-incubated with RNAP, PIC almost gone at 8-fold molar excess RIP); “no binding” in data set [1] (no TBP and TFB, RNAP recruitment strictly dependent on both, label: 32P).
